From the M2OR odorant receptor database
Residue numbers refer to the chain shown, from its start. The list shows a part of the results, in another mix than the full data. Calls are pooled over several reports, among them a noisy single-well screen. The list shows a part of the results.

Protein sequences, listed by entry. Tags and fused reporters are not part of them. Lines headed by an entry give the natural chain unless they say otherwise; changes in a name come on top.
UniProt Q8NGZ5: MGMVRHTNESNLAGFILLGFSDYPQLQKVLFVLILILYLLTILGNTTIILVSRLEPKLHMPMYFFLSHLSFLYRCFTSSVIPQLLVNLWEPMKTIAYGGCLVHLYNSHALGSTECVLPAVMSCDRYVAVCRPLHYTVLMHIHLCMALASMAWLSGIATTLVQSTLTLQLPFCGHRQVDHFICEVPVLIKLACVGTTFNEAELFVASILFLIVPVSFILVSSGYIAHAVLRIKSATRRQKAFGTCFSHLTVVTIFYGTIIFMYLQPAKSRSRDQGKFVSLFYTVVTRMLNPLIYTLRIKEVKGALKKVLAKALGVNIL

Key:
Details in all cases: stereoisomer not certain
OR2C3 = system: T1, OR2C3
T1 sequence (whole entry): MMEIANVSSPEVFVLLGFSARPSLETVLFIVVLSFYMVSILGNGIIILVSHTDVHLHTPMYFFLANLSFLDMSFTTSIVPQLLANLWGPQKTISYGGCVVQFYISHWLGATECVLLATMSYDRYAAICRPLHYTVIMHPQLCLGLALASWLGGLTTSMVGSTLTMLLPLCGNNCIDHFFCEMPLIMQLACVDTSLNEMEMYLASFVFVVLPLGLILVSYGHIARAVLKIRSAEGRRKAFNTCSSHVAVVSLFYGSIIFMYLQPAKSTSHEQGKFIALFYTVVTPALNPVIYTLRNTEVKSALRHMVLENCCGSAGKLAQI
How it was run: (§1)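 Transient luciferase assays in mammalian cell lines were common, though methods varied by source. The values come from published papers and their supplementary material, with extra details from the original authors when needed. Responsive refers to a measured signal the original authors judged statistically different from baseline, and non-responsive (inactive) to the remainder.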

OR2D2 (Homo sapiens) = molecular target: T2, OR2D2 (Homo sapiens) (UniProt Q9H210)
T2 sequence (whole entry): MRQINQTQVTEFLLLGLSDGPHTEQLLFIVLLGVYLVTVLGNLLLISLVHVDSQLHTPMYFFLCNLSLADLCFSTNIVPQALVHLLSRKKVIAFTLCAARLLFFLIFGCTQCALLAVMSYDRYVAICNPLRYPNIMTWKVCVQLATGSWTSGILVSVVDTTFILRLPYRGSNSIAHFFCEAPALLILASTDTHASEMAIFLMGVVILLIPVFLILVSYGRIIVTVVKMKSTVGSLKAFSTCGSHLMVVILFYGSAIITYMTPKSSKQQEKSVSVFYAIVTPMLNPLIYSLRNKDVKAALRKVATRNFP
How it was run: as §1

OR2D3 = system: T3, OR2D3
T3 sequence (whole entry): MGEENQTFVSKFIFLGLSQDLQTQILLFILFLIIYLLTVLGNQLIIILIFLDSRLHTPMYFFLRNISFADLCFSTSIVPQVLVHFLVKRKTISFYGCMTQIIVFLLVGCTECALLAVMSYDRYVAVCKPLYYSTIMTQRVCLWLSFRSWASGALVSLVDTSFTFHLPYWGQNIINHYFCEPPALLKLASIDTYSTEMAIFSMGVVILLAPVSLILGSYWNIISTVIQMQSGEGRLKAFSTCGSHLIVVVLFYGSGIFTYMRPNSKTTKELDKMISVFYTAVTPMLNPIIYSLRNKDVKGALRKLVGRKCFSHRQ
How it was run: as §1

OR2F1 (Homo sapiens) = molecular target: T4, OR2F1 (Homo sapiens) (UniProt Q13607)
T4 sequence (whole entry): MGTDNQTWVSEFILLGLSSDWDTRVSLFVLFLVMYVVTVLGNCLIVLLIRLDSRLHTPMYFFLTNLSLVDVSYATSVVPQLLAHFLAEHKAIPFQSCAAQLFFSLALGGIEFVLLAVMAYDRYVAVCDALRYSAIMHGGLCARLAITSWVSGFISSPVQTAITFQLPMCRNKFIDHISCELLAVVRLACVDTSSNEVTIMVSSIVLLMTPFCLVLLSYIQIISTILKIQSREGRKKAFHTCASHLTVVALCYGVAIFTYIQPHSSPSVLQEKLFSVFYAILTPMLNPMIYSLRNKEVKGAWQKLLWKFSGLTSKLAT
How it was run: as §1

OR2F2 = system: T5, OR2F2
T5 sequence (whole entry): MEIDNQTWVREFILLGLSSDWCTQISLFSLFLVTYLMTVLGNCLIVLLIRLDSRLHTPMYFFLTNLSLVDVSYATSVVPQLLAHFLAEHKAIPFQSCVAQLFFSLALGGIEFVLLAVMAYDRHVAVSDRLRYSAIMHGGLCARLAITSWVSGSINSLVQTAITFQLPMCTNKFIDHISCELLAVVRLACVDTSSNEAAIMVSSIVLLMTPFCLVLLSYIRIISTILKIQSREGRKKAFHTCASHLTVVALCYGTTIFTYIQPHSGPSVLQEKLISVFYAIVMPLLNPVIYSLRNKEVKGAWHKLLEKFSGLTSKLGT
How it was run: as §1

OR2G2 [1] = system: T6, OR2G2
T6 sequence (whole entry): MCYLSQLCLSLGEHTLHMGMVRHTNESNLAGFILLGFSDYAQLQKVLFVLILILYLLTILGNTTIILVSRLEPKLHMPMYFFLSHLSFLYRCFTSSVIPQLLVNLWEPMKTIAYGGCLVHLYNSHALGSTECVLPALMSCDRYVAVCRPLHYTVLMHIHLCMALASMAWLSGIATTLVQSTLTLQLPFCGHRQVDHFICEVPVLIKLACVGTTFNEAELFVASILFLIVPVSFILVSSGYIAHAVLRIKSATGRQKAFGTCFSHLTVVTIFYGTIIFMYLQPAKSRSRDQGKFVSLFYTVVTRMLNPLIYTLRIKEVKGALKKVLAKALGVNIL
How it was run: as §1

OR2G2 [2] = system: T7, OR2G2; remark: listed apart in the source
T7 sequence (whole entry): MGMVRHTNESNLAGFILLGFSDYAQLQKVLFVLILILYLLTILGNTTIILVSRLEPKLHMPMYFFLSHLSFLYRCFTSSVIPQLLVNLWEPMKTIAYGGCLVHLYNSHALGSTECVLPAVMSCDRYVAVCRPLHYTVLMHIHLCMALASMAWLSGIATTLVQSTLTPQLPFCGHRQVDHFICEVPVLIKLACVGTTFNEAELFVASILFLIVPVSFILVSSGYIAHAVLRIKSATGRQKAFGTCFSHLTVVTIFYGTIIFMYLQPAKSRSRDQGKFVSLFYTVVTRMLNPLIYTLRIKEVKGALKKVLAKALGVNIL
How it was run: as §1

OR2G3 (Homo sapiens) = molecular target: T8, OR2G3 (Homo sapiens) (UniProt Q8NGZ4)
T8 sequence (whole entry): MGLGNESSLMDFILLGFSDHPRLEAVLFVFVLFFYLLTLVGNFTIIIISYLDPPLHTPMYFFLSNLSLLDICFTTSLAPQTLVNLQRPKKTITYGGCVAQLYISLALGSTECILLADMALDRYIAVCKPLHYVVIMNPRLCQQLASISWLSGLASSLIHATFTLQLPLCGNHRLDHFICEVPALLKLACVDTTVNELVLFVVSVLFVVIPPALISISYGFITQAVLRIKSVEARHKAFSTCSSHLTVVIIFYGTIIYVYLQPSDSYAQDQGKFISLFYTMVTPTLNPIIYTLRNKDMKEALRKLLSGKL
How it was run: as §1

OR2G3 = system: T9, OR2G3
T9 sequence (whole entry): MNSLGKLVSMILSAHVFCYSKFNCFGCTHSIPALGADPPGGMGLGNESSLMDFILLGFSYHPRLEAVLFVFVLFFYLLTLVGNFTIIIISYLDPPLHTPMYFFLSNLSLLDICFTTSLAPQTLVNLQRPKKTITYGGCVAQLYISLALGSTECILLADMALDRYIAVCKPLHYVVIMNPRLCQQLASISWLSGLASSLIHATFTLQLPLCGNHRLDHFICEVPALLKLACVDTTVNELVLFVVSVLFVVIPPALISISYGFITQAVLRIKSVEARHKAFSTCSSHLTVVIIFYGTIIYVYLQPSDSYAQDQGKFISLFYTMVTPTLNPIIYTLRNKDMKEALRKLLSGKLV
How it was run: as §1

OR2G6 (Homo sapiens) = molecular target: T10, OR2G6 (Homo sapiens) (UniProt Q5TZ20)
T10 sequence (whole entry): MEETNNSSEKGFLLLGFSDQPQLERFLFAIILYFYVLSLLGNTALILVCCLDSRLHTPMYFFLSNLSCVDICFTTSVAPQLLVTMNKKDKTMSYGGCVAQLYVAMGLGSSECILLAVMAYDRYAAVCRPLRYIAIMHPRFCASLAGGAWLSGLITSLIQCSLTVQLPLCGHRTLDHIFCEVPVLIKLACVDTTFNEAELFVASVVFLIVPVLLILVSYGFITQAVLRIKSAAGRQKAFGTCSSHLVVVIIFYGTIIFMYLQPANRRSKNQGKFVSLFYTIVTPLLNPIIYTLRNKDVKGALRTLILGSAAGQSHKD
How it was run: as §1

OR2H1 (Homo sapiens) = molecular target: T11, OR2H1 (Homo sapiens) (UniProt Q9GZK4)
T11 sequence (whole entry): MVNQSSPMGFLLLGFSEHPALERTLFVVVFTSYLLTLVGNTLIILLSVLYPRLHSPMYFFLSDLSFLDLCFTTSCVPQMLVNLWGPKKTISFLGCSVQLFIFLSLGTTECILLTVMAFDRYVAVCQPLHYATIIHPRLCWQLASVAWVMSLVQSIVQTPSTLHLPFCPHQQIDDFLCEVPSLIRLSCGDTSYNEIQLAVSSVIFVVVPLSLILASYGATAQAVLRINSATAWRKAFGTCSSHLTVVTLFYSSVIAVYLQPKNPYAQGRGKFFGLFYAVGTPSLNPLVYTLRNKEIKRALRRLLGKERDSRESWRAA
How it was run: as §1

OR2H2 = system: T12, OR2H2
T12 sequence (whole entry): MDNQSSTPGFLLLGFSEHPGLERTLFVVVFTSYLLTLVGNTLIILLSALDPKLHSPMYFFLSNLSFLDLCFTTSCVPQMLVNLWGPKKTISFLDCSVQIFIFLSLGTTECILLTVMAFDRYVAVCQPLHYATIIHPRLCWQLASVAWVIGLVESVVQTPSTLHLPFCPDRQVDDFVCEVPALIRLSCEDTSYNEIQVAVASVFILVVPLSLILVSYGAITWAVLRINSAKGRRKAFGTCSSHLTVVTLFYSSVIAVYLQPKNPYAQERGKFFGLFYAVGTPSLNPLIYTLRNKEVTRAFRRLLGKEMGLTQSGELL
How it was run: as §1

OR2G2 (Homo sapiens) = molecular target: T13, OR2G2 (Homo sapiens) (UniProt Q8NGZ5)
T13 sequence (whole entry): T7 sequence (whole entry) with A24P, P167L, G236R
How it was run: as §1

Measured: odorant receptor agonist call

CC=Cc1ccc(O)c(OC)c1
active: OR2C3 | OR2D2 (Homo sapiens)
not listed: OR2G2 (Homo sapiens)
inactive: all other assays above

CCCCCCOC(=O)CCC
not listed: OR2G2 (Homo sapiens)
inactive: all other assays above

C=CCSCC=C
not listed: OR2G2 (Homo sapiens)
inactive: all other assays above

CCCCCC(C)=O
not listed: OR2C3 | OR2D2 (Homo sapiens)
inactive: all other assays above

CCCC(=O)O
not listed: OR2G2 (Homo sapiens)
inactive: all other assays above

COc1cc(C)ccc1O
not listed: OR2G2 (Homo sapiens)
inactive: all other assays above

CC(C)(C)c1ccc(CCC=O)cc1
active: OR2D2 (Homo sapiens)
not listed: OR2G2 (Homo sapiens)
inactive: all other assays above

C=CCc1ccc(OC)c(OC)c1
not listed: OR2G2 (Homo sapiens)
inactive: all other assays above

CC1CCC(C(C)C)C(O)C1 (stereo not drawn)
active: OR2C3 | OR2G6 (Homo sapiens)
not listed: OR2G2 (Homo sapiens)
inactive: all other assays above

O=C1CCCCC1
not listed: OR2C3 | OR2D2 (Homo sapiens) | OR2G2 (Homo sapiens)
inactive: all other assays above

O=CCc1ccccc1
active: OR2D2 (Homo sapiens)
not listed: OR2G2 (Homo sapiens)
inactive: all other assays above

CC12CCC(C1)C(C)(C)C2=O (stereo not drawn)
not listed: OR2G2 (Homo sapiens)
inactive: all other assays above

CCCCCCCC=CC=O
active: OR2C3
not listed: OR2G2 (Homo sapiens)
inactive: all other assays above
